Source: PubChem BioAssay AID652243 (Drosophila RNAi Screening Center, 2013)
The deposit covers about 24,000 reagents; below is an unselected part of those that have a named target and a result. In the full data, 246 (1%) got an active call. 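Plates not normalised; calls are printed but the firefly/Renilla ratio behind them is not deposited; fold cut for lowering reported inconsistently.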 Raw values vary from plate to plate and are shown uncorrected. Reagents against one gene are numbered here. The record does not give: the amount of reagent.

Purpose: 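Fly regulators of androgen-dependent reporter output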 (primary screen)
Cells: Drosophila S2R+ cells
Reagents: long dsRNA against Drosophila genes
Timing: 72 h (48 h, then 24 h hormone)
Challenge: synthetic androgen R1881 at 10 nM for 24 h
Measured: 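Firefly light from an androgen-responsive reporter and Renilla control light per well, raw and unnormalised, for each of two replicates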
Direction: firefly reporter light: higher = more light from androgen-responsive reporter; Renilla control light: higher = more constitutive control signal (cell number, transfection)
Active means: 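Across duplicate plates, a knock-down whose log firefly/Renilla ratio shifted a set fold down or up from the GFP/LacZ control mean was a hit; the downward cut appears as both 1.5 and 3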
Meaning of the calls: active = hit: reporter lowered or raised; inactive = no hit

firefly reporter light, replicate 1	firefly reporter light, replicate 2	Renilla control light, replicate 1	Renilla control light, replicate 2	Call	gene	reagent
2.27e5	1.65e5	2.39e5	1.61e5	inactive	meru	1
2.54e5	2.28e5	2.45e6	1.84e6	inactive	meru	2
5.78e5	5.60e5	6.35e5	4.57e5	inactive	Gbp2	1
1.39e5	1.58e5	9.71e5	1.13e6	inactive	Nplp4	1
1.92e5	1.74e5	4.00e5	4.65e5	inactive	CG31735	1
8.70e5	7.01e5	1.84e6	1.42e6	inactive	CG31735	2
3.10e5	3.22e5	1.39e6	1.89e6	inactive	CG1737	1
9.27e5	7.88e5	1.10e6	1.21e6	inactive	CG1737	2
2.74e5	2.11e5	5.00e6	3.24e6	inactive	onecut	1
3.64e5	2.97e5	7.36e5	7.39e5	inactive	onecut	2
2.88e5	3.71e5	1.88e6	2.27e6	inactive	MFS16	1
3.00e5	3.39e5	5.65e5	7.78e5	inactive	MFS16	2
6.46e5	4.29e5	1.29e6	1.25e6	inactive	SERCA	1
3.02e5	3.27e5	5.76e5	4.57e5	inactive	SERCA	2
1.53e5	1.01e5	2.34e6	1.79e6	inactive	CG9632	1
1.22e5	65473	7.83e5	5.44e5	inactive	CG11504	1
88650	1.01e5	1.16e6	8.12e5	inactive	CG32447	1
2.09e5	2.79e5	3.22e6	2.34e6	inactive	CG32447	2
3.16e5	3.08e5	3.16e6	3.30e6	inactive	Ntl	1
5.20e5	3.75e5	2.08e6	1.38e6	inactive	Ntl	2
78251	1.46e5	2.57e5	2.05e5	inactive	AGO2	1
5.11e5	6.46e5	1.57e6	2.05e6	inactive	PH4alphaPV	1
5.92e5	5.96e5	1.38e6	1.20e6	inactive	PH4alphaPV	2
2.44e5	1.82e5	1.21e6	1.02e6	inactive	CG13157	1
2.37e5	2.50e5	2.53e6	2.35e6	inactive	Gr68a	1
2.00e5	1.47e5	1.46e6	1.85e6	inactive	snky	1
72439	96192	1.46e6	1.46e6	inactive	CG13334	1
1.48e5	44762	8.93e5	4.67e5	inactive	CG7523	1
31466	52751	3.40e5	2.91e5	inactive	elgi	1
2.33e5	4.72e5	4.72e5	4.72e5	inactive	elgi	2
9.34e5	9.12e5	1.44e6	1.23e6	inactive	CG34015	1
71124	86171	8.44e5	9.36e5	inactive	e	1
4.57e5	4.55e5	3.91e5	3.69e5	inactive	e	2
7.68e5	4.50e5	6.73e5	8.84e5	inactive	CG8745	1
2.95e5	2.92e5	3.80e6	3.19e6	inactive	CG8745	2
1.08e6	7.37e5	1.11e6	8.27e5	inactive	CG8745	3
2.52e5	3.66e5	2.51e6	2.32e6	inactive	Acbp1	1
5.82e5	6.56e5	1.72e6	1.68e6	inactive	Acbp1	2
1.26e6	3.91e5	1.98e6	8.78e5	inactive	CG13326	1
2.48e5	73433	5.13e5	2.43e5	inactive	t-Grip128	1
3.08e5	2.72e5	8.18e5	6.00e5	inactive	t-Grip128	2
8.65e5	3.45e5	1.77e6	6.82e5	inactive	t-Grip128	3
2.00e5	1.87e5	1.40e6	1.51e6	inactive	CG15651	1
7.86e5	9.95e5	1.32e6	1.22e6	inactive	PheRS-m	1
1.49e6	7.04e5	1.40e6	1.19e6	inactive	Dis3l2	1
1.49e5	2.41e5	2.12e6	3.34e6	inactive	CG6026	1
1.97e5	1.99e5	2.93e6	2.76e6	inactive	CG6154	1
3.06e5	6.75e5	8.11e5	1.24e6	inactive	CG6154	2
1.22e6	1.24e6	2.52e6	2.18e6	inactive	CG8399	1
1.38e5	2.10e5	8.64e5	1.19e6	inactive	Hs3st-A	1
84548	1.30e5	1.72e6	1.58e6	inactive	Hs3st-A	2
5.38e5	2.93e5	1.34e6	1.32e6	inactive	Hs3st-A	3
84388	99281	9.69e5	1.10e6	inactive	wge	1
2.04e5	2.91e5	2.71e6	2.74e6	inactive	wge	2
40224	36912	2.03e5	2.54e5	inactive	SkpA	1
3.85e5	3.09e5	7.77e5	4.81e5	inactive	SkpA	2
4.45e5	5.28e5	3.84e6	3.37e6	inactive	CG45002	1
2.01e5	2.62e5	1.88e6	1.85e6	inactive	nec	1
